Assay results published in article PMC3097235.
Where a chain is given by its changes, count along the chain named. These are yes or no findings as the source states them, for the method shown. In cells and extracts the contact can be indirect. Some entries that bind do so weakly or less than the wild type. Where a sequence is shown, tags or fusion partners need not be part of it.

Tests used:
Experiment in all cases: co-IP; HEK 293 cells co-transfected with tyrosinase constructs and EDEM1, pulse-chased for 20 min; lysates precipitated with T311 anti-tyrosinase antibodies; autoradiography
[1] = target: T1, human tyrosinase N-glycosylation mutant Δ2 (N111Q) (human) (UniProt P14679)
T1 sequence: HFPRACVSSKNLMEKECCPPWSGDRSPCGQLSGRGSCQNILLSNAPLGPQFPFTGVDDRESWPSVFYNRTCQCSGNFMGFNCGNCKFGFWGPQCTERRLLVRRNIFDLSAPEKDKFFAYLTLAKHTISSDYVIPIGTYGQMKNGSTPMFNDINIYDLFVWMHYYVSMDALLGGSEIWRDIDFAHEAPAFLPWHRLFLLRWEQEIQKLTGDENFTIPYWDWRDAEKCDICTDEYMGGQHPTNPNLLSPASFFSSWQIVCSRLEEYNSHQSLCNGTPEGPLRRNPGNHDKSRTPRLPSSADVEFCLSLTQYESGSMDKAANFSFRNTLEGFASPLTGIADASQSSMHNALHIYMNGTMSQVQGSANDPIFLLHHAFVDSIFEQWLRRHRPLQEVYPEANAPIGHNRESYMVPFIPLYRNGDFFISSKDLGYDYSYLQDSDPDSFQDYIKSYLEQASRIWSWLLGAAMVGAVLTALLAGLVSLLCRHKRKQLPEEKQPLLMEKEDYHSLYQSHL

[2] = target: T2, human tyrosinase N-glycosylation mutant Δ5 (N290Q) (human) (UniProt P14679)
T2 sequence: T1 sequence with Q93N, N272Q

[3] = target: T3, human tyrosinase N-glycosylation mutant Δ6 (N337Q) (human) (UniProt P14679)
T3 sequence: T1 sequence with Q93N, N319Q

[4] = target: T4, human tyrosinase N-glycosylation mutant Δ4 (N230Q) (human) (UniProt P14679)
T4 sequence: T1 sequence with Q93N, N212Q

[5] = target: T5, human tyrosinase N-glycosylation mutant Δ7 (N371Q) (human) (UniProt P14679)
T5 sequence: T1 sequence with Q93N, N353Q

binding [1]: binds
binding [2]: binds
binding [3]: binds
binding [4]: binds
binding [5]: binds
B1: mouse EDEM fused to an HA-tag (protein, UniProt Q925U4 1-652)
chain: MQWRALVLGLVLLRLGLHAVLWLVFGLGPSMGFYQRFPLSFGFQRLRDPDGSGPVGPPGGPAWLHRPRRGTEGRLETPPEPGPTPGPGVCGPAHWGYALGGGGCGPDEYERRYSGAFPPQLRAQMRDLARGMFVFGYDNYMAHAFPQDELNPIYCRGRGPDRGDPSNLNINDVLGNYSLTLVDALDTLAIMGNSSEFQKAVKLVINTVSFDKDSTVQVFEATIRVLGSLLSAHRIITDSKQPFGDMTIEDYDNELLYMAHDLAVRLLPAFENTKTGIPYPRVNLKTGVPPDSNNETCTAGAGSLLVEFGILSRLLGDSTFEWVARRAVKALWNLRSNDTGLLGNVVNIQTGHWVGKQSGLGAGLDSFYEYLLKSYILFGEKEDLEMFNAAYQSIQSYLRRGREACNEGEGDPPLYVNVNMFSGQLMNTWIDSLQAFFPGLQVLIGDVEDAICLHAFYYAIWKRYGALPERYNWQLQAPDVLFYPLRPELVESTYLLYQATKNPFYLHVGMDILQSLEKYTKVKCGYATLHHVIDKSKEDRMESFFLSETCKYLYLLFDEENPVHKSGTRYMFTTEGHIISVDKRLRELPWKEFFSEDGERDQEEKFVHRPKSQELRVINSSSNCNRVPDERRYSLPLKSIYMRQIDQMVGLI
